No constants are given. Whether binding was seen depends on the method and setting. Binding seen in cells or lysates may run through a third protein. A yes stands for co-enrichment or nearness to the bait. Other partners may have been found. Tags and fused reporters may be left off the sequences shown.

Chains of the proteins cited; added tags and fusions are not shown.
UniProt Q9QY76: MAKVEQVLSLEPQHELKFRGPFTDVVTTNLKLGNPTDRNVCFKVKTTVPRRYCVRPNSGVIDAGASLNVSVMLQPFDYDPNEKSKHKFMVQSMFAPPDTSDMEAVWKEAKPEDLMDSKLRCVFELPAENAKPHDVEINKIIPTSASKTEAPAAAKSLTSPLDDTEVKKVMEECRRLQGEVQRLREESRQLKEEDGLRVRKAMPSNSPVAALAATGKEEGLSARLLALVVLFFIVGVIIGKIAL

The target in the experiment is T1, MNV NS4-FLAG (murine norovirus) (UniProt Q80J95).
T1 sequence: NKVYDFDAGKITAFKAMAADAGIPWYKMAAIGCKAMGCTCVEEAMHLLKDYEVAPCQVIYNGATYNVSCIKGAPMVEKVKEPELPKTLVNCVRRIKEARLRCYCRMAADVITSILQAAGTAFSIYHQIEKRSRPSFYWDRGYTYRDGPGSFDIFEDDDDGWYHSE
The experiment in a line: affinity purification with mass spectrometry; anti-FLAG purification from SILAC-labelled BV2 cells infected with NS1/2-FLAG or NS4-FLAG MNV against WT MNV; Benzonase in the lysis buffer; quantitative mass spectrometry, three repeats.

On to “MNV VF1 protein product of ORF4 (murine norovirus)”, for which the binding entry is on record as “binds”.

Take VapB (from UniProt Q9QY76 1-243): the binding entry is recorded as “binds”.

These data come from paper PMC6739877.
